For assay [1], the target named is T1, Cynomolgus(Rhesus)-TL1A (cynomolgus monkey) (UniProt G7PRK8).
T1 sequence: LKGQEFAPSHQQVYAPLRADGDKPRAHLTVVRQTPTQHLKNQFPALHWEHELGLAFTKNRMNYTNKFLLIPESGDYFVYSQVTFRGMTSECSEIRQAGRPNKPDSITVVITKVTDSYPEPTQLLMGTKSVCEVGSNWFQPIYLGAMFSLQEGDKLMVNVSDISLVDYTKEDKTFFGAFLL
As to the kind of experiment: ELISA. (ELISA stands for enzyme-linked immunosorbent assay.)

In the next assay the target is T2, Rat-TL1A (rat) (UniProt Q8K3Y7).
T2 sequence (looked up): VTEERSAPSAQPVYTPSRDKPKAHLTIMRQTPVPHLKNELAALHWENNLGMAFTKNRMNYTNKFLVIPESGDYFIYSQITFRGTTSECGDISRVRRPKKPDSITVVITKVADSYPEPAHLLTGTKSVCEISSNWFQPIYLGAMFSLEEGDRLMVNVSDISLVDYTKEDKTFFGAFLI
Kind of assay: ELISA.

These are yes or no findings as the source states them, for the method shown. Some results given as binding are weak or reduced against the parent protein; the word gives no strength.

B1: humanized antibody 72851 (antibody, human IgG1, kappa, L234A L235A, V domains shown)
VH: QVQLVQSGAEVKKPGASVKVSCKASGYSFTGYTMNWVRQAPGQNLEWIGLINPYSGGTNYNQKFKGRATLTVDTSISTAYMELSRLRSDDTAVYYCASIYQRHDGIAYWGQGTLVTVSS
VL: EIVLTQSPDFQSVTPKEKVTITCSASSSVNYMHWYQQKPDQSPKLLIKDTSKLASGVPSRFSGSGSGTDFTLTINSLEAEDAATYYCQQWSSSPYTFGGGTKVEIKR
notes: Humanized from 728H4D9; human IgG1/kappa
B1: the binding entry (in assay [1]; with Rat-TL1A (rat)) was “binds” throughout.
